Here are results for one sequence from article PMC4859511.

The subject of one data set is GST. Description: EMSA. As to conditions: ends filled in with biotin-11-dUTP, Tcf7: 10 mM Tris pH 7.5, 50 mM KCl, 1 mM DTT, 2.5 mM EDTA, 50 ng/uL poly(dAdT), 0.05% NP40, 20 min, Gata.a: 10 mM Tris pH 7.5, 50 mM KCl, 5 mM MgCl2, recombinant protein, label: biotin, letters put together from the description. (In general: Mobility shift assays separate free from complexed probe on a gel.)

In data set [1] the test system is Tcf7-GST fusion (Ciona intestinalis). Description: EMSA. Conditions: ends filled in with biotin-11-dUTP, Tcf7: 10 mM Tris pH 7.5, 50 mM KCl, 1 mM DTT, 2.5 mM EDTA, 50 ng/uL poly(dAdT), 0.05% NP40, 20 min, Gata.a: 10 mM Tris pH 7.5, 50 mM KCl, 5 mM MgCl2, recombinant protein, protein details: GST, label: biotin, letters put together from the description.

Construct, isoform or probe ends are uncertain for at least one entry. For some assays here: No signal at the amounts used counts as a negative.

Take “AAAGTTCACCGACAAAGATAAGATTT (double strand) [Fgf9/16/20 Tcf7 site b probe]”: the binding result was “no binding” in the data set with GST and “binds” in data set [1].
